Experimental data reported in the supplement of paper PMC10849652.
The list shows a part of the results.

Amino acid sequences for entries named in this document (tags omitted). A change or cut given only in a name is not applied to a line headed by its entry.
UniProt Q9Y580: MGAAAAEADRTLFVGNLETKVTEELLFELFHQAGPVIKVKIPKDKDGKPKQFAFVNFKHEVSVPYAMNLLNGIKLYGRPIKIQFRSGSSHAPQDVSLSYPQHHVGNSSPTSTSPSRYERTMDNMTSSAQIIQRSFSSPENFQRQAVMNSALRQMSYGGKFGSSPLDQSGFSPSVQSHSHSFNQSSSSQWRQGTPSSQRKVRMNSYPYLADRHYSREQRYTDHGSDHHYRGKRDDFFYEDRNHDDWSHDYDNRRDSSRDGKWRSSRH
UniProt O60673: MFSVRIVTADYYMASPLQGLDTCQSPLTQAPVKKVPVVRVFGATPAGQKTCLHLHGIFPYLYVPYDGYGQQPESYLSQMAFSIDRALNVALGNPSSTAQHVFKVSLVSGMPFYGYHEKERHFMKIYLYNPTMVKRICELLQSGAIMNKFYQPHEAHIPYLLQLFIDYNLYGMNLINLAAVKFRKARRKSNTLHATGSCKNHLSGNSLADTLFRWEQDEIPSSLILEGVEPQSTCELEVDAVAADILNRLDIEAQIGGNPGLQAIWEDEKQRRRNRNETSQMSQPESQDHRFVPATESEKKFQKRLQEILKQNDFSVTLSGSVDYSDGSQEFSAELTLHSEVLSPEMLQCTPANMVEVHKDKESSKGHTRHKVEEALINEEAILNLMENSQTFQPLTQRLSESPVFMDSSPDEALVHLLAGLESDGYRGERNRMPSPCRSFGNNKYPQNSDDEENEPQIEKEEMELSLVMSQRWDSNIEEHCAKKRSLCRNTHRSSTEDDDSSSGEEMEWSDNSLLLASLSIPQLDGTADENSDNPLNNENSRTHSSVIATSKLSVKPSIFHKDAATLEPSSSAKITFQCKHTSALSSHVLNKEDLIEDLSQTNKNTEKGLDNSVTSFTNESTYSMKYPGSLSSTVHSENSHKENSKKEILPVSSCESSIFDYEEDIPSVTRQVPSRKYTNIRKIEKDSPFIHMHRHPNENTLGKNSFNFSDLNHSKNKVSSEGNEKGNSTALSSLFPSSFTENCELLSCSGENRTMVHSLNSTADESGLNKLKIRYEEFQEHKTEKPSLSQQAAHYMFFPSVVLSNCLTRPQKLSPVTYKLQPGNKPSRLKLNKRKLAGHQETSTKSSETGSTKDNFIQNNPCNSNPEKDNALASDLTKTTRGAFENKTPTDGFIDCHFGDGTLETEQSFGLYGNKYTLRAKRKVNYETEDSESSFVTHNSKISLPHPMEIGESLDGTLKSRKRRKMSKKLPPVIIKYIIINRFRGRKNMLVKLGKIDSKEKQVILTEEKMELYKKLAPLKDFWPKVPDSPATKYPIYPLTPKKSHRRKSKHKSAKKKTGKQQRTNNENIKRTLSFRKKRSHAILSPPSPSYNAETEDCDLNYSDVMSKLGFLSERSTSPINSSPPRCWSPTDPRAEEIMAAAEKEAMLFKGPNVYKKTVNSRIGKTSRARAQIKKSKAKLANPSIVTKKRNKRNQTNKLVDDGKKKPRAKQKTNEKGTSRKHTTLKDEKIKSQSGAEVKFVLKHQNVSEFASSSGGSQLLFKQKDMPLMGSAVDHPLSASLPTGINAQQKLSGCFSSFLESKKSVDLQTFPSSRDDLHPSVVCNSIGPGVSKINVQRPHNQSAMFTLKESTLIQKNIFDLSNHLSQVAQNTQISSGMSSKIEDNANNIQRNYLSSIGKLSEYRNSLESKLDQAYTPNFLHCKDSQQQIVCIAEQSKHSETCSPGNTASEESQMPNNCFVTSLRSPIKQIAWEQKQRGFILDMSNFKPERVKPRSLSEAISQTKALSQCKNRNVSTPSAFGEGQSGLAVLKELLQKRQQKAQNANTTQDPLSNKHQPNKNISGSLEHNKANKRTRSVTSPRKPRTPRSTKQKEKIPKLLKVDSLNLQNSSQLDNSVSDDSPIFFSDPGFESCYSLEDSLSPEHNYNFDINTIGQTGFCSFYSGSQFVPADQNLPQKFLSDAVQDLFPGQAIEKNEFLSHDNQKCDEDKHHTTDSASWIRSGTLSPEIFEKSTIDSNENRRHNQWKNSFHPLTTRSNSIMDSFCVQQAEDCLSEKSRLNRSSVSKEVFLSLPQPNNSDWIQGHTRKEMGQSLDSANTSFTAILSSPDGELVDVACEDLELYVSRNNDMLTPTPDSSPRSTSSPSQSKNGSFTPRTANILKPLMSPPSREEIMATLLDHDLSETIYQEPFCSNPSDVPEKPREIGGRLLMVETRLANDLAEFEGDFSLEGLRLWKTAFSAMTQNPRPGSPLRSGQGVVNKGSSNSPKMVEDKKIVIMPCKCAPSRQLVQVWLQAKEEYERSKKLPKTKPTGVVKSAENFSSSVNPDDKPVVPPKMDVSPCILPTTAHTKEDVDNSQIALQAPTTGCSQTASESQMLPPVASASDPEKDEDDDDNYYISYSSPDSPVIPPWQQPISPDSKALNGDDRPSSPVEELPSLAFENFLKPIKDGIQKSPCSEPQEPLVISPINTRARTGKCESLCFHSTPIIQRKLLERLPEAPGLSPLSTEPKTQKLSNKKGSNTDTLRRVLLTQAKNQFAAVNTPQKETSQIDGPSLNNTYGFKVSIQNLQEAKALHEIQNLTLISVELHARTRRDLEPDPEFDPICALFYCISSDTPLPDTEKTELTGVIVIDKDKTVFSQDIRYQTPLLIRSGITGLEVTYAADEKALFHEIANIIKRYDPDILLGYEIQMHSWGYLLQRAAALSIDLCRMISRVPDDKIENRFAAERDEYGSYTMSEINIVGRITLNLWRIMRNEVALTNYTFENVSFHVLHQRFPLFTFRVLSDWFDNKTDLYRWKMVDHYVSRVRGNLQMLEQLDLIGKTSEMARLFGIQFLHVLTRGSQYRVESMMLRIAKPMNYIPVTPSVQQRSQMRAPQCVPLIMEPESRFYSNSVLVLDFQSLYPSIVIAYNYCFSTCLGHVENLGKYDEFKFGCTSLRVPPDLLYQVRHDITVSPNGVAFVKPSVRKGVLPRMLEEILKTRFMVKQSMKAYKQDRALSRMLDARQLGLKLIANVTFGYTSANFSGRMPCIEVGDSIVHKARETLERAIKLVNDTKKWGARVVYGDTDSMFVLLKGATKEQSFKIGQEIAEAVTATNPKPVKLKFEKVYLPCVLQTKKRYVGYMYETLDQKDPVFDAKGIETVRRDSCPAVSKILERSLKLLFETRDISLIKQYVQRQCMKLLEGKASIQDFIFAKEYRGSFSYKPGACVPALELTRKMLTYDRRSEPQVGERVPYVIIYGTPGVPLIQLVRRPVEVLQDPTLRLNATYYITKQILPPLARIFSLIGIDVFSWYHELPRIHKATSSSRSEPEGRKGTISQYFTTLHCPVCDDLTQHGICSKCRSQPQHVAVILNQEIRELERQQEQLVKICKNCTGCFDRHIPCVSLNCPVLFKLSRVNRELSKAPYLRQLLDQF
UniProt Q14644: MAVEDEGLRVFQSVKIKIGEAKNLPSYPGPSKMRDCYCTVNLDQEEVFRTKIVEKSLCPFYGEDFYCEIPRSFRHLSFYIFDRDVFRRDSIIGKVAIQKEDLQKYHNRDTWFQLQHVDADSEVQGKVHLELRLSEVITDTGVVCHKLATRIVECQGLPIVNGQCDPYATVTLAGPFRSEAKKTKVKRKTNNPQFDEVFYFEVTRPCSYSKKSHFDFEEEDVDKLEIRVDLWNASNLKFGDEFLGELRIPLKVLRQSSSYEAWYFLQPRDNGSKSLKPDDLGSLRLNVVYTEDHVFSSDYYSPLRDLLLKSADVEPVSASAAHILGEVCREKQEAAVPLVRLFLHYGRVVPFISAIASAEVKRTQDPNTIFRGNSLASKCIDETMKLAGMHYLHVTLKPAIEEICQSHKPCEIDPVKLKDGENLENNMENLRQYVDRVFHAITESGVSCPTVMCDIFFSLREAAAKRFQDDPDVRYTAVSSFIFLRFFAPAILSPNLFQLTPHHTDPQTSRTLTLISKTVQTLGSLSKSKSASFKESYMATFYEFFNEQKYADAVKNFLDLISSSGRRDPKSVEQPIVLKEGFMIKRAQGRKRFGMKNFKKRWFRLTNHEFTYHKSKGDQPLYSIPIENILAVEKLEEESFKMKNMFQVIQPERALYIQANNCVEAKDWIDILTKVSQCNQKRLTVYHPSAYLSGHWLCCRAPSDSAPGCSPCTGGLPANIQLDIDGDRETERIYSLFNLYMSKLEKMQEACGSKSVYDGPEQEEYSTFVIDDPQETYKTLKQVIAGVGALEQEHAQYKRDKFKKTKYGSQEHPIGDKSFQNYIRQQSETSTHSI
UniProt Q5T481: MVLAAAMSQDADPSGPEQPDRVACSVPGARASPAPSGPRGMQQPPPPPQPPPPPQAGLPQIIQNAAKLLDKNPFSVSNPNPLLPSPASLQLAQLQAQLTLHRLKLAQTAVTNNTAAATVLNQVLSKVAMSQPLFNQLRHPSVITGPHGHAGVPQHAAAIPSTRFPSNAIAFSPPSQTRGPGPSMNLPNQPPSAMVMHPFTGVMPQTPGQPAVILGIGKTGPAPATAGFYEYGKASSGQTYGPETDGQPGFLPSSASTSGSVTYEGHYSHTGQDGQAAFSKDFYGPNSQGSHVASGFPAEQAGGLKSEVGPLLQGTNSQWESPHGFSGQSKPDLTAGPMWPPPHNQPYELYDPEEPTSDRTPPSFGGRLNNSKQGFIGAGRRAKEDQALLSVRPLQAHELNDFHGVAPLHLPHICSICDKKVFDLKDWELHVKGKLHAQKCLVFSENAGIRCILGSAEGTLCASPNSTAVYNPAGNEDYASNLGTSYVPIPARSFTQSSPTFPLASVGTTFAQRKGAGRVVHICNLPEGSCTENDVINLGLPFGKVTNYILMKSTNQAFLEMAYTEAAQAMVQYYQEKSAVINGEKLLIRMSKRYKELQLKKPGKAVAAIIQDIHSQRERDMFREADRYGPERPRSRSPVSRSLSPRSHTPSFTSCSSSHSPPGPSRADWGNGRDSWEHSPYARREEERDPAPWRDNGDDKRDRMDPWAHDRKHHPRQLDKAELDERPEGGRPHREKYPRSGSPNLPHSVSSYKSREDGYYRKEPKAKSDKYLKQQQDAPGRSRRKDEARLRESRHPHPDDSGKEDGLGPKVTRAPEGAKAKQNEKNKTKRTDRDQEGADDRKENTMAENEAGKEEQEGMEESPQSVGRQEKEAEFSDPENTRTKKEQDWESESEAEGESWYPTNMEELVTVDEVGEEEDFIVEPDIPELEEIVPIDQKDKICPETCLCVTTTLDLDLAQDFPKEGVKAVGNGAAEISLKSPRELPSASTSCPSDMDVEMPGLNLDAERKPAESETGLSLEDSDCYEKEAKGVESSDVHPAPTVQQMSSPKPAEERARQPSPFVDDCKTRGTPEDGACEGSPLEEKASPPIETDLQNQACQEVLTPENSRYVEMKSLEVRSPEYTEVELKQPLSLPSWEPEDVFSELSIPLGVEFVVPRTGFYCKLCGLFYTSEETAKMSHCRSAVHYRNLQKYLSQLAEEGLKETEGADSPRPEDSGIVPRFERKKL
UniProt Q9Y388: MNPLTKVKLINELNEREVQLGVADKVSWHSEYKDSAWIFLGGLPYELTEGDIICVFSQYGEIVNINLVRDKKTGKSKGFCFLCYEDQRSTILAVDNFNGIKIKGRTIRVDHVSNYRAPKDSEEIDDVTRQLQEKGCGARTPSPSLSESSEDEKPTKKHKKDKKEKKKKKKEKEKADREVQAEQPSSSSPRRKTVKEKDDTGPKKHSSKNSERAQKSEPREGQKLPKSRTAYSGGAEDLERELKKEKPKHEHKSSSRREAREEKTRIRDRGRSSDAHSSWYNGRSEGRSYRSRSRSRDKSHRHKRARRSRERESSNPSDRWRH
UniProt Q15293: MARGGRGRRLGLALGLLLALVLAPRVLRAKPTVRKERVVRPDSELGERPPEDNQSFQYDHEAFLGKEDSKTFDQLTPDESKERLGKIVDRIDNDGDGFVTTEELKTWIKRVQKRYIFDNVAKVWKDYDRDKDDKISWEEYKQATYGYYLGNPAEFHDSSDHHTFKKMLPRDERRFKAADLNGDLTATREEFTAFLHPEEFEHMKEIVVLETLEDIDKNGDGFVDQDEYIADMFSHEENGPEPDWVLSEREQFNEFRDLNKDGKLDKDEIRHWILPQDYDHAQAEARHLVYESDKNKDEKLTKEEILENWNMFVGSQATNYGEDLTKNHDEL
UniProt Q9HBH5: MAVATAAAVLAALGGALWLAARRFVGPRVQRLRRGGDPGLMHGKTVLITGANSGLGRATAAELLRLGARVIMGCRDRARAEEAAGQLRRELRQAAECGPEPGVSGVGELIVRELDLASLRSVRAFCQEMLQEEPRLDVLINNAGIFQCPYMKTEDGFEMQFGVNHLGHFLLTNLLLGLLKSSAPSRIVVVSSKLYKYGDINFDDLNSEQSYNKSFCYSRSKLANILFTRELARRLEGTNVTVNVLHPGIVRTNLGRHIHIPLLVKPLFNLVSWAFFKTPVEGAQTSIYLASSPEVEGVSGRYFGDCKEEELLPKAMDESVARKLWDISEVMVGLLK

Tests used:
Test in all cases: log2 fold change, soluble protein after heating vs DMSO (PISA); higher = thermal stabilisation; K562 lysate, 10 uM; active = over 0.2 and 3.5 SD of the protein, either way, in both replicates (recomputed)
[1] = compound: NCC(=O)Nc1ccc(-n2nc(C(F)(F)F)cc2-c2ccc3c(ccc4ccccc43)c2)cc1
In short: (§1)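 A 30 min treatment with 10 μM compound was applied to crude K562 extract at 1 mg/mL protein in PBS pH 7.4 with 1 mM MgCl2. Heating for 3 min spanned 48°C-58°C, after which aliquots were pooled, adjusted to 0.5% NP-40 at 4°C and spun at 21,000xg for 90 min. TMTpro 16plex LC-MS/MS of the supernatant, with channel sums equalised, gave values recorded as log-two fold change in thermal stability against solvent controls, from duplicates.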

vorinostat = compound: O=C(CCCCCCC(=O)Nc1ccccc1)NO [vorinostat]
In short: as §1

silmitasertib = compound: O=C(O)c1ccc2c(c1)nc(Nc1cccc(Cl)c1)c1ccncc12 [silmitasertib]
In short: as §1

[2] = compound: O=C1NC(=O)C(c2cnc3ccccn23)=C1c1cn2c3c(cc(F)cc13)CN(C(=O)N1CCCCC1)CC2
In short: as §1

entospletinib = compound: c1cn2cc(-c3ccc4cn[nH]c4c3)nc(Nc3ccc(N4CCOCC4)cc3)c2n1 [entospletinib]
In short: as §1

Measured: log2 fold change

RBM7 (UniProt Q9Y580)
inactive: [1] -0.025 | vorinostat -0.163 | silmitasertib 0.042 | [2] -0.076 | entospletinib -0.082

REV3L (UniProt O60673)
inactive: [1] 0.024 | vorinostat -0.135 | silmitasertib -0.037 | [2] 0.064 | entospletinib -0.026

RELCH isoform 2 (UniProt Q9P260)
inactive: [1] 0.098 | vorinostat -0.094 | silmitasertib 0.039 | [2] -0.021 | entospletinib -0.007

RASA3 (UniProt Q14644)
inactive: [1] -0.022 | silmitasertib -0.08 | [2] -0.015 | entospletinib 0.017
active: vorinostat -0.361

Retrieved one by one from the list above (2):
RASA3 (UniProt Q14644)
inactive: [1] -0.022 | silmitasertib -0.08 | [2] -0.015 | entospletinib 0.017
active: vorinostat -0.361

RELCH isoform 2 (UniProt Q9P260)
inactive: [1] 0.098 | vorinostat -0.094 | silmitasertib 0.039 | [2] -0.021 | entospletinib -0.007

Further entries follow:

RBM20 (UniProt Q5T481)
inactive: [1] 0.228 | vorinostat -0.007 | silmitasertib -0.033

RBMX2 (UniProt Q9Y388)
inactive: [1] -0.009 | vorinostat 0.017 | silmitasertib 0.088

RCN1 (UniProt Q15293)
inactive: [1] -0.006 | vorinostat 0.128 | silmitasertib 0.003 | [2] -0.048 | entospletinib 0.029

RBM6 (UniProt P78332)
inactive: [1] 0.054 | vorinostat -0.061 | silmitasertib -0.034 | [2] 0.02 | entospletinib -0.027

RAPGEF5, A0A590UJR0
inactive: [1] 0.106 | vorinostat 0.045 | silmitasertib -0.035 | [2] 0.043 | entospletinib -0.067

RDH14 (UniProt Q9HBH5)
inactive: [1] -0.072 | silmitasertib 0.044 | [2] 0.004 | entospletinib 0.026
active: vorinostat -0.318
